For at least one entry, the source does not settle the construct or the ends of the probe. For some of these results: No signal at the amounts used counts as a negative.
Experiments:
Assay in all cases: EMSA
GST = GST (UniProt P08515); details: 10 mM Tris-HCl pH 8.0, 150 mM KCl, 0.25 mM EDTA, 12.5% glycerol, 0.2 mM DTT, protease inhibitors, 1 ug/ul BSA, 1 ug poly(dIdC), 2 ug GST protein; room temperature; recombinant protein; protein details: GST; label: 32P 5' end (polynucleotide kinase)
[1] = tested on: GST-Meis2 dMD (lacks MEINOX domain); details: competed by excess unlabeled specific oligo, no Pbx; 10 mM Tris-HCl pH 8.0, 150 mM KCl, 0.25 mM EDTA, 12.5% glycerol, 0.2 mM DTT, protease inhibitors, 1 ug/ul BSA, 1 ug poly(dIdC), 2 ug GST protein; room temperature; recombinant protein; residues 199-400; protein details: N-terminal GST; label: 32P 5' end (polynucleotide kinase)
GST-Meis2 full length = details: competed by 10x unlabeled specific oligo, no Pbx; 10 mM Tris-HCl pH 8.0, 150 mM KCl, 0.25 mM EDTA, 12.5% glycerol, 0.2 mM DTT, protease inhibitors, 1 ug/ul BSA, 1 ug poly(dIdC), 2 ug GST protein; room temperature; recombinant protein; residues 1-400; protein details: N-terminal GST; label: 32P 5' end (polynucleotide kinase)
[2] = tested on: GST-Meis2 dHD (lacks homeodomain); details: 10 mM Tris-HCl pH 8.0, 150 mM KCl, 0.25 mM EDTA, 12.5% glycerol, 0.2 mM DTT, protease inhibitors, 1 ug/ul BSA, 1 ug poly(dIdC), 2 ug GST protein; room temperature; recombinant protein; residues 1-190; protein details: N-terminal GST; label: 32P 5' end (polynucleotide kinase)

The chains behind the UniProt entries cited, without tags or fusion partners.
UniProt P08515, whole entry: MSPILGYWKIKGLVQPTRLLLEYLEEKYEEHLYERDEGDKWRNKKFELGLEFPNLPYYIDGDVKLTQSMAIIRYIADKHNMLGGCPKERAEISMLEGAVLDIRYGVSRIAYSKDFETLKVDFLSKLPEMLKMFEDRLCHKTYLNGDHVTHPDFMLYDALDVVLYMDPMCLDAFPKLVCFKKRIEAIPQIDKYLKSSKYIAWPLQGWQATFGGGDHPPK

CGAAGCCGGCCTTGTCAGGTTGAGAA (double strand) [26-bp Meis probe]
binding result (GST): no binding
binding result [1]: binds
binding result (GST-Meis2 full length): binds
binding result [2]: no binding
